The values below come from publication PMC11057142.

Amino acid sequences for entries named in this document (tags omitted).
UniProt Q86TM6: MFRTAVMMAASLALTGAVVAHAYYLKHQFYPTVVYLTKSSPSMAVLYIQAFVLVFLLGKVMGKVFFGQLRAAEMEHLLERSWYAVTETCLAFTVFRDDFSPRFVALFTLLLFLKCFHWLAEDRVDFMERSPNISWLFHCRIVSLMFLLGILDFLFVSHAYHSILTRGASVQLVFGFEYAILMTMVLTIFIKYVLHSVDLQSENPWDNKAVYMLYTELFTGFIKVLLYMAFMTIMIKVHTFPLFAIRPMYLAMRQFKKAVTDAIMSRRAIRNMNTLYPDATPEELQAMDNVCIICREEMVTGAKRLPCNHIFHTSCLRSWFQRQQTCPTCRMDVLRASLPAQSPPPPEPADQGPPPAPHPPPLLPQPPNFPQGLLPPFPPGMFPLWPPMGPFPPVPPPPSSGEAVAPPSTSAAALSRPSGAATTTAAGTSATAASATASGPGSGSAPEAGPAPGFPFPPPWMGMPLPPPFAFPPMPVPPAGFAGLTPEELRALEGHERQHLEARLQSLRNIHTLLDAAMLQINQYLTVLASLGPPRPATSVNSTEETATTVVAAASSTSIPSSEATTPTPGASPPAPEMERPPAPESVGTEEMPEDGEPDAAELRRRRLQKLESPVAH
UniProt P09429: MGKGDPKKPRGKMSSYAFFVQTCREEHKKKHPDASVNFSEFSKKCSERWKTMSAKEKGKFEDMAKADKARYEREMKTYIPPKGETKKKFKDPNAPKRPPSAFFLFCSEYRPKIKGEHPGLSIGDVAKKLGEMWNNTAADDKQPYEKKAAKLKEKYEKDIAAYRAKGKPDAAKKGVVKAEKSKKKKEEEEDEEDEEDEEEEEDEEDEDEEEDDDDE

Results are given in words; binding and its absence hold for the method and conditions named. Binding seen in cells or lysates may run through a third protein. Some binding calls cover weakened binding; strength is not graded here.

The assay concerns the target E3 ubiquitin ligase synoviolin (SYVN1) (human (in NPA87 cells)) (UniProt Q86TM6). In words: co-IP; NPA87 cells lysed in IP lysis buffer (Beyotime) at 4 °C for 30 min; Protein A/G agarose beads; SDS-PAGE and immunoblotting; precipitating antibody not stated. (In general: In western blotting, separated proteins are transferred to a membrane and probed.)

On to HMGB1 (from UniProt P09429 1-215), for which the binding result is given as “binds”.
